Assay results as given in article PMC7814725.
No constants are given. Whether binding was seen depends on the method and setting. In cells and extracts the contact can be indirect. Some results given as binding are weak or reduced against the parent protein; the word gives no strength. Sequences can lack the tags named with a protein.

Protein sequences, listed by entry. Tags and fused reporters are not part of them.
UniProt Q14203: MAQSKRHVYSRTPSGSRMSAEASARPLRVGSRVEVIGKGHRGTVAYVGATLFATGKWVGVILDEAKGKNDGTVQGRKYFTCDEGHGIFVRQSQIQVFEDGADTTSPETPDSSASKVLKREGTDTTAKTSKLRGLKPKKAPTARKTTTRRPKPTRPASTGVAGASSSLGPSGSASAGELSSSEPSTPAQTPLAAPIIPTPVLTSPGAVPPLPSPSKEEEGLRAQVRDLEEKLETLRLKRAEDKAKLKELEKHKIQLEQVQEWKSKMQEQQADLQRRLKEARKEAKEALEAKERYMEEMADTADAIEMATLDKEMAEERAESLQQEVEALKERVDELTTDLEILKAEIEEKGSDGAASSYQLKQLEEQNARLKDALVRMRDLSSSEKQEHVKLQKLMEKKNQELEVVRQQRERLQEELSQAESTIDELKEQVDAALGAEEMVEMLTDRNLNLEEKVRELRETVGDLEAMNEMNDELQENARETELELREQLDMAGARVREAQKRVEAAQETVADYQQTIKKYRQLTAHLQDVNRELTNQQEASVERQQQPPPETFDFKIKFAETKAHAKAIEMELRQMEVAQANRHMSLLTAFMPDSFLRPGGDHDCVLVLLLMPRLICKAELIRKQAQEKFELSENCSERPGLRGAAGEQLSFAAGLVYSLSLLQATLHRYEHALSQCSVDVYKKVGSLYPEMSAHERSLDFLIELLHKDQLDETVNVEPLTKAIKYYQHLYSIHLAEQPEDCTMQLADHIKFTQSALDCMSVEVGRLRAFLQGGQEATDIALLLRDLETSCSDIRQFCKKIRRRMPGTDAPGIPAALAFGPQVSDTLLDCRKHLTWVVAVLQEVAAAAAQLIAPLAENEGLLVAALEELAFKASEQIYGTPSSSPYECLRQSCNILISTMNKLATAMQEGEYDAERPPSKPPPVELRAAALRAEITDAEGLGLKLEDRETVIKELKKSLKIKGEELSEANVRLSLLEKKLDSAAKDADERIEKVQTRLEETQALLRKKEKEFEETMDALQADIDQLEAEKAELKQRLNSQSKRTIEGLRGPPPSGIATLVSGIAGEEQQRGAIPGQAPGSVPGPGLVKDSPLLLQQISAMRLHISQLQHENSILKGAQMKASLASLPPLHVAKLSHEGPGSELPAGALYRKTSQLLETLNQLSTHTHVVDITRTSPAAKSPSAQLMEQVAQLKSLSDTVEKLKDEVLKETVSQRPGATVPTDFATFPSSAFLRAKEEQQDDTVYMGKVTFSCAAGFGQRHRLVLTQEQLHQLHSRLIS

B1: GFP-hDysbindin N-terminal region (1-87 aa) (domain or fragment, UniProt Q96EV8 1-87)
chain: MLETLRERLLSVQQDFTSGLKTLSDKSREAKVKSKPRTVPFLPKYSAGLELLSRYEDTWAALHRRAKDCASAGELVDSEVVMLSAHW
B2: GFP-hDysbindin middle region (88-180 aa) (domain or fragment, UniProt Q96EV8 88-180)
chain: EKKKTSLVELQEQLQQLPALIADLESMTANLTHLEASFEEVENNLLHLEDLCGQCELERCKHMQSQQLENYKKNKRKELETFKAELDAEHAQK
B3: GFP-hDysbindin C-terminal region (181-351 aa) (domain or fragment, UniProt Q96EV8 181-351)
chain: VLEMEHTQQMKLKERQKFFEEAFQQDMEQYLSTGYLQIAERREPIGSMSSMEVNVDMLEQMDLMDISDQEALDVFLNSGGEENTVLSPALGPESSTCQNEITLQVPNPSELRAKPPSSSSTCTDSATRDISEGGESPVVQSDEEEVQVDTALATSHTDREATPDGGEDSDS

What follows are binders tested against FLAG-p150^glued (human dynactin subunit 1 isoform 1) (human) (UniProt Q14203) (assay: co-IP; lysates of transfected HEK293 cells in ELB lysis buffer (50 mM Tris pH 8.0, 250 mM NaCl, 0.1% NP-40, 5 mM EDTA); 1-2 ug anti-FLAG or anti-GFP antibody overnight at 4 C, protein-A agarose, three washes; western blot for the tags; in Fig. 2h and 2j with or without co-expressed dysbindin).

Binder | binding
B1 | binds
B2 | no binding
B3 | no binding
